Measured values: the supplement of paper PMC10849652
The list shows a part of the results.

The chains behind the UniProt entries cited, without tags or fusion partners. Where a name states a change or a piece, a line headed by the entry shows the natural chain unless it says otherwise.
UniProt Q9Y3D6: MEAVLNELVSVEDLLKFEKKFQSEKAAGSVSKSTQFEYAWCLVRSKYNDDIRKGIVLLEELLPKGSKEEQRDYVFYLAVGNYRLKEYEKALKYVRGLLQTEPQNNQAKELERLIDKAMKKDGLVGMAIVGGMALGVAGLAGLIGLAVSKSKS
UniProt Q8TB52: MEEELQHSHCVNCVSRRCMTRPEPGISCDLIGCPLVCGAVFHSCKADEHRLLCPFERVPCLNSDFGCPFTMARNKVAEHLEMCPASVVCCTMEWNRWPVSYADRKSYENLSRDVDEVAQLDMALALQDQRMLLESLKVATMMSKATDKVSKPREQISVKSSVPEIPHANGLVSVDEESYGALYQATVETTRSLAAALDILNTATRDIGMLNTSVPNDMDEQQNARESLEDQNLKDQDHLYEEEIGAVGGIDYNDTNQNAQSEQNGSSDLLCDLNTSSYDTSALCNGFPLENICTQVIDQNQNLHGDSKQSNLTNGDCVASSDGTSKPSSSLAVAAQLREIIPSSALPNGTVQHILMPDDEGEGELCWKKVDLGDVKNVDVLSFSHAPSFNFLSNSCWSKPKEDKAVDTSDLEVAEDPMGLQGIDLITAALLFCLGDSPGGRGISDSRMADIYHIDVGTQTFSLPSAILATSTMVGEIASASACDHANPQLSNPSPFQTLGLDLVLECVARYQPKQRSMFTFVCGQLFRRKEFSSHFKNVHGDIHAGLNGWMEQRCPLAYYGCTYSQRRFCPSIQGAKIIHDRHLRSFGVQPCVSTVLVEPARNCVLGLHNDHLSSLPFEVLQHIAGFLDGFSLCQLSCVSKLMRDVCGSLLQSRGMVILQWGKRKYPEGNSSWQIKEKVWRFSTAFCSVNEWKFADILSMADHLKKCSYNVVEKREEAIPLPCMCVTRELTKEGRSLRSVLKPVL
UniProt Q96NB1: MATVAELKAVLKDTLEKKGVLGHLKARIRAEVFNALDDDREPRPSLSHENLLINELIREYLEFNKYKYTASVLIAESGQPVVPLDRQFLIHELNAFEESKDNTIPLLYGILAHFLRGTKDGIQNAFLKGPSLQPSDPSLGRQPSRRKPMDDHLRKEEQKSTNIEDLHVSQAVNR
UniProt Q6PJ61: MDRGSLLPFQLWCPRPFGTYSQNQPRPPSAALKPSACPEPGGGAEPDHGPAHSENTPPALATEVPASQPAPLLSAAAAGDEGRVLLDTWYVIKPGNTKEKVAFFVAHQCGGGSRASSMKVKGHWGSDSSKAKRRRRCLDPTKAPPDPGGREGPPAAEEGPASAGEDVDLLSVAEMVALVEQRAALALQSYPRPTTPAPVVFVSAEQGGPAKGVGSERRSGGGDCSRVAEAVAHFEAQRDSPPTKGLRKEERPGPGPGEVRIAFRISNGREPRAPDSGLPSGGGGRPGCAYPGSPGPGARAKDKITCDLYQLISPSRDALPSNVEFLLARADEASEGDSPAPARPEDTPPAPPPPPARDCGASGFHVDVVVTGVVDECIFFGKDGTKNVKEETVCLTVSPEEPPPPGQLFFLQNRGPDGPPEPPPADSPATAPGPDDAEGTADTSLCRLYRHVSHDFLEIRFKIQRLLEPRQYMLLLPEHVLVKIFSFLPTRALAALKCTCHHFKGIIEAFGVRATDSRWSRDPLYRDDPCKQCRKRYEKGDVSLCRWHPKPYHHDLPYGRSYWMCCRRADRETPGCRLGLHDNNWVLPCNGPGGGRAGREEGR
UniProt Q8NEZ5: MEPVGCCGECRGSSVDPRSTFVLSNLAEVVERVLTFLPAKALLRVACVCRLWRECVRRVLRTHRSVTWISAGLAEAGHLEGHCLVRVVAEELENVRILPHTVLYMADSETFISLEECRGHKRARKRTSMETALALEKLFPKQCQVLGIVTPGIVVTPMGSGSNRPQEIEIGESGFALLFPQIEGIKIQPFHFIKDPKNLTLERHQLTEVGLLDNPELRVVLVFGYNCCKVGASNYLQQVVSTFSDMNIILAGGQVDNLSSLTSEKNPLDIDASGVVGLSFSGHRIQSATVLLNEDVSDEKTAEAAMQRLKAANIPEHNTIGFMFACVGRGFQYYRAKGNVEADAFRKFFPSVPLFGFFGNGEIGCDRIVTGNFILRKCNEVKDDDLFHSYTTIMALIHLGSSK
UniProt Q96IG2: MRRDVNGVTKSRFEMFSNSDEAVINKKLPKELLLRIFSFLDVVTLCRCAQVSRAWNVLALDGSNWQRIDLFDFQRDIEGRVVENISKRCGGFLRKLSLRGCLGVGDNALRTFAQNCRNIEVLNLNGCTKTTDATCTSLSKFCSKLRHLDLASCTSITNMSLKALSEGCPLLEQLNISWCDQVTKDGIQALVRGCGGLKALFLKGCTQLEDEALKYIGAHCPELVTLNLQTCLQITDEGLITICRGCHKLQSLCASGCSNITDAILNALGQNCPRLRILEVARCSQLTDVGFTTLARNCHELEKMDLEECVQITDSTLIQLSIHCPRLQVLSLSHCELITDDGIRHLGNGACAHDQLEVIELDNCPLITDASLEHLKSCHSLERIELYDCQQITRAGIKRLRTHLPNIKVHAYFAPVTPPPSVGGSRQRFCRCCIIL
UniProt Q52LJ0: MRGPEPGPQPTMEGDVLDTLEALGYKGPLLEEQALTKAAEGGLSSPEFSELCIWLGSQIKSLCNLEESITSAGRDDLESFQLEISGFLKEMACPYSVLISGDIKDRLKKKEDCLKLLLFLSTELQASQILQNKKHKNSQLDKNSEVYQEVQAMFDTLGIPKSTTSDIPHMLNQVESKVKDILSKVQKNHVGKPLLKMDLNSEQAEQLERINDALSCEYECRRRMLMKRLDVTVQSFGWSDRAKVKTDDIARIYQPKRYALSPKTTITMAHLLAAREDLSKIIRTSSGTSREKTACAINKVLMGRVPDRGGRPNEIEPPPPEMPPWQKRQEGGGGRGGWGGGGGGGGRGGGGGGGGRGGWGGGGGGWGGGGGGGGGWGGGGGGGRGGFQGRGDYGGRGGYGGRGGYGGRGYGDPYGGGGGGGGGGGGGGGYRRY
UniProt O95302: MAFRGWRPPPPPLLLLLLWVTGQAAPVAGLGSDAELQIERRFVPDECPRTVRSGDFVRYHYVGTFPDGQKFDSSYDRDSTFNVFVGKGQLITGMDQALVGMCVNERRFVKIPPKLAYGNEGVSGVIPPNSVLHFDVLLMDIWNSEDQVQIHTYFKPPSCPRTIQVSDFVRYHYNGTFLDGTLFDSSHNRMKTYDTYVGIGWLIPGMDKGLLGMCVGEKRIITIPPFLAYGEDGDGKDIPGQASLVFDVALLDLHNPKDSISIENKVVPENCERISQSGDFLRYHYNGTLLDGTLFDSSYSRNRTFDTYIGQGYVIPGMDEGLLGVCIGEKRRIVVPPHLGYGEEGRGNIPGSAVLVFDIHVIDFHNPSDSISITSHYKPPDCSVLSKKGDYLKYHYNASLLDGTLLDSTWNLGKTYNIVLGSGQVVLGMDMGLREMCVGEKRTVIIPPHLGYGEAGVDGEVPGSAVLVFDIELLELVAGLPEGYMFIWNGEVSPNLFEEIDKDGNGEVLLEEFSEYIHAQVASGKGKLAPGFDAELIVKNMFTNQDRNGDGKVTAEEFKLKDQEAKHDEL
UniProt Q6PIW4: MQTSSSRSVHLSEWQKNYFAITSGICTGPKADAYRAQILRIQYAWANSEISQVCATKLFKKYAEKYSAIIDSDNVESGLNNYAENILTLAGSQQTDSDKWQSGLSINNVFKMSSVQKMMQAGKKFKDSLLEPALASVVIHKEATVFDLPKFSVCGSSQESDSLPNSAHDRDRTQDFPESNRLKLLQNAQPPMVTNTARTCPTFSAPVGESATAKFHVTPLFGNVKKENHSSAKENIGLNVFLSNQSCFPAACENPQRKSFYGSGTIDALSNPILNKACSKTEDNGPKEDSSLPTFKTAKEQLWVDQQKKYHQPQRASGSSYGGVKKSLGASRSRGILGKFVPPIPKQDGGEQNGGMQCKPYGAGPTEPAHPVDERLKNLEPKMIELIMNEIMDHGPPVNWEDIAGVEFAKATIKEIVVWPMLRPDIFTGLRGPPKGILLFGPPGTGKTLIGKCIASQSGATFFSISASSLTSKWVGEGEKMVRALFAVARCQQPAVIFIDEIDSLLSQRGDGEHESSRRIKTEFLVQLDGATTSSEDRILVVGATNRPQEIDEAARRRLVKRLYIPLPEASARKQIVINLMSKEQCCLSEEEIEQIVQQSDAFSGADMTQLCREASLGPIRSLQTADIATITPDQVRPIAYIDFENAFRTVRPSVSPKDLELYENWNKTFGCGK
UniProt Q9BXW9: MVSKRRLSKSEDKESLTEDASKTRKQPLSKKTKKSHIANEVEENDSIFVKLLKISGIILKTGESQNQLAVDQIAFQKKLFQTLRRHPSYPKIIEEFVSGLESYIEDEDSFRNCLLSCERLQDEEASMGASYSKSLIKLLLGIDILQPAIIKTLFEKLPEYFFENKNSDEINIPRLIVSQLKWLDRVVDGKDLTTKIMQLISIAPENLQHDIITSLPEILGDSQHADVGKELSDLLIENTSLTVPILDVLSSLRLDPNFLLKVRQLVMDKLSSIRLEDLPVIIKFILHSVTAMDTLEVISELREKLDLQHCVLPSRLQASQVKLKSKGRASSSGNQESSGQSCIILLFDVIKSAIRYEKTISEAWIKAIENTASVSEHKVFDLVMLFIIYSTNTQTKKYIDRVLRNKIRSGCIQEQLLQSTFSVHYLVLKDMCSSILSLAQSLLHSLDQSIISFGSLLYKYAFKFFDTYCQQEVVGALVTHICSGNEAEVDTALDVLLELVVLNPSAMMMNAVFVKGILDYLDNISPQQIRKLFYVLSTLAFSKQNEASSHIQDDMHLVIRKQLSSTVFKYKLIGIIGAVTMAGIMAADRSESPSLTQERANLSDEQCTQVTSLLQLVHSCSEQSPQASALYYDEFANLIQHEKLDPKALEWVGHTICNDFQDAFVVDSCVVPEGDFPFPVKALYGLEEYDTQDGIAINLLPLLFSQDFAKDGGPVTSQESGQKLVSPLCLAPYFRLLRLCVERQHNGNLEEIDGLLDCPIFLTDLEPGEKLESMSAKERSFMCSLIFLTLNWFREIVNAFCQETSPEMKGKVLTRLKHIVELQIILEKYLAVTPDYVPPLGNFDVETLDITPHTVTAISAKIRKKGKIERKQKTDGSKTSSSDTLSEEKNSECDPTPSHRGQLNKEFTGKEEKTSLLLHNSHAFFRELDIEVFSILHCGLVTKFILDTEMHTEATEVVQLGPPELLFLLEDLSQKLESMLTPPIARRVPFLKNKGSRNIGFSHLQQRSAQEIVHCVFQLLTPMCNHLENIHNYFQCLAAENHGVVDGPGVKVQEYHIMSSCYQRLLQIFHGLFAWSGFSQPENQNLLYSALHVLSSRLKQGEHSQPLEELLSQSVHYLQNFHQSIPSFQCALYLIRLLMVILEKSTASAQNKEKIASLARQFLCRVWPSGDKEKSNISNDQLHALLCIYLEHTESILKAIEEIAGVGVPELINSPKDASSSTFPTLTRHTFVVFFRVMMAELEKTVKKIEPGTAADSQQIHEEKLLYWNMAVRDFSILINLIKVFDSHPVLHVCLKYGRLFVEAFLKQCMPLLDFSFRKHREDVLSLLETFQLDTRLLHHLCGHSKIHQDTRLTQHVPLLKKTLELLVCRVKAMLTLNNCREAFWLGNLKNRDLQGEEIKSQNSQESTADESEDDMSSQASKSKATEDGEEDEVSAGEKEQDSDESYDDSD
UniProt Q6P3S6: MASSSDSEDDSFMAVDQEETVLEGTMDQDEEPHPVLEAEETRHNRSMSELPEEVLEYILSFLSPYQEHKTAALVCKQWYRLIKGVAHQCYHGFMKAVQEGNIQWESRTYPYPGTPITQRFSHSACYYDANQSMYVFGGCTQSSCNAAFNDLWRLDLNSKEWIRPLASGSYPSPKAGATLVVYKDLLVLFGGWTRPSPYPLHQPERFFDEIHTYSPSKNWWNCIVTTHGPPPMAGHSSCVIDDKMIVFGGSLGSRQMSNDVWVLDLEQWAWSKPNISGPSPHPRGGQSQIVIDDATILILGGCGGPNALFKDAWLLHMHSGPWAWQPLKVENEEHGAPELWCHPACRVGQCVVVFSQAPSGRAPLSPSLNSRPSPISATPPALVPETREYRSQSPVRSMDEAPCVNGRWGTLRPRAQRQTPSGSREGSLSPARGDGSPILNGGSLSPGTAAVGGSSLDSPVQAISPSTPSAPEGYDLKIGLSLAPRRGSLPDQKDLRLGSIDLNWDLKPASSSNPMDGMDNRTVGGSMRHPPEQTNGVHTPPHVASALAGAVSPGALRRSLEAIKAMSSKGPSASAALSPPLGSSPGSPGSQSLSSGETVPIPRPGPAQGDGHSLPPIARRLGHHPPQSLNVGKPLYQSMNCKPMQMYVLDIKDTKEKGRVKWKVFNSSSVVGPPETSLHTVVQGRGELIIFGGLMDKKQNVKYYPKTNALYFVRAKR

Experiments:
Test in all cases: log2 fold change, soluble protein after heating vs DMSO (PISA); higher = thermal stabilisation; K562 lysate, 10 uM; active = over 0.2 and 3.5 SD of the protein, either way, in both replicates (recomputed)
[1] = compound: CS(=O)(=O)CCNCc1ccc(-c2ccc3ncnc(Nc4ccc(OCc5cccc(F)c5)c(Cl)c4)c3c2)o1 [lapatinib]
Procedure, shortened: (§1)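 Pellets of K562 cells were dounce-homogenised in PBS pH 7.4 with 1 mM MgCl2, and the crude extract was held at 1 mg/mL protein for a 30 min treatment with 10 μM compound. Aliquots were heated for 3 min over 48°C-58°C and pooled before NP-40 was added to 0.5% at 4°C. The supernatant from 21,000xg for 90 min was quantified by TMTpro 16plex LC-MS/MS with channel sums equalised. Values are reported from duplicates as log-two fold change in thermal stability relative to solvent controls.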

[2] = compound: CS(=O)(=O)N1CCN(Cc2cc3nc(-c4cccc5[nH]ncc45)nc(N4CCOCC4)c3s2)CC1 [pictilisib]
Procedure, shortened: as §1

[3] = compound: C[C@@H](Oc1cc(-c2cnn(C3CCNCC3)c2)cnc1N)c1c(Cl)ccc(F)c1Cl [crizotinib]
Procedure, shortened: as §1

[4] = compound: C[C@H](C1=CC=C(C=C1)C(=O)NC2=C3C=CNC3=NC=C2)N
Procedure, shortened: as §1

[5] = compound: C[C@H](Nc1ncnc2nc[nH]c12)c1cc2cccc(Cl)c2c(=O)n1-c1ccccc1 [duvelisib]
Procedure, shortened: as §1

[6] = compound: Cc1cc(Nc2cc(CN3CCOCC3)c3nc(C)c(Cc4ccc(Cl)cc4F)n3n2)n[nH]1 [gandotinib]
Procedure, shortened: as §1

[7] = compound: Cc1cc(Nc2cc(N3CCN(C)CC3)nc(Sc3ccc(NC(=O)C4CC4)cc3)n2)n[nH]1 [tozasertib]
Procedure, shortened: as §1

[8] = compound: Cc1ccc(-n2nc(C(C)(C)C)cc2NC(=O)Nc2ccc(OCCN3CCOCC3)c3ccccc23)cc1 [doramapimod]
Procedure, shortened: as §1

[9] = compound: Cc1ccc(NC(=O)c2ccc(CN3CC[C@H](N(C)C)C3)c(C(F)(F)F)c2)cc1Nc1nccc(-c2cncnc2)n1 [bafetinib]
Procedure, shortened: as §1

[10] = compound: Cc1cccc(CC(=O)N2CCc3c2ccc(-c2cn(C)c4ncnc(N)c24)c3F)n1
Procedure, shortened: as §1

[11] = compound: Cc1cn(-c2cc(NC(=O)c3ccc(C)c(Nc4nccc(-c5cccnc5)n4)c3)cc(C(F)(F)F)c2)cn1 [nilotinib]
Procedure, shortened: as §1

[12] = compound: Cc1nc(Nc2n[nH]c3c2CN(C(=O)N[C@H](CN(C)C)c2ccccc2)C3(C)C)c2sccc2n1
Procedure, shortened: as §1

[13] = compound: Cc1nc(Nc2ncc(C(=O)Nc3c(C)cccc3Cl)s2)cc(N2CCN(CCO)CC2)n1 [dasatinib]
Procedure, shortened: as §1

[14] = compound: Cc1ncc(-c2ccnc(Nc3ccc(S(C)(=O)=O)cc3)n2)n1C(C)C
Procedure, shortened: as §1

[15] = compound: Cn1cc(-c2ccc3c(c2)CCN3C(=O)Cc2cccc(C(F)(F)F)c2)c2c(N)ncnc21
Procedure, shortened: as §1

[16] = compound: Cn1cc(CNCC2CCN(c3ncc(C(=O)NO)cn3)CC2)c2ccccc21 [quisinostat]
Procedure, shortened: as §1

[17] = compound: Cn1cncc1[C@@](N)(c1ccc(Cl)cc1)c1ccc2c(c1)c(-c1cccc(Cl)c1)cc(=O)n2C [tipifarnib]
Procedure, shortened: as §1

[18] = compound: NC(=O)Nc1cc(-c2cccc(F)c2)sc1C(=O)N[C@H]1CCCNC1
Procedure, shortened: as §1

[19] = compound: NC(=O)c1cnc(N[C@@H]2CCCC[C@@H]2N)nc1Nc1cccc(-n2nccn2)c1
Procedure, shortened: as §1

[20] = compound: NC1(c2ccc(-c3nc4ccn5c(=O)[nH]nc5c4cc3-c3ccccc3)cc2)CCC1
Procedure, shortened: as §1

Target | log2 fold change [1] | log2 fold change [2] | log2 fold change [3] | log2 fold change [4] | log2 fold change [5] | log2 fold change [6] | log2 fold change [7] | log2 fold change [8] | log2 fold change [9] | log2 fold change [10] | log2 fold change [11] | log2 fold change [12] | log2 fold change [13] | log2 fold change [14] | log2 fold change [15] | log2 fold change [16] | log2 fold change [17] | log2 fold change [18] | log2 fold change [19] | log2 fold change [20]
FIS1 (UniProt Q9Y3D6) | inactive: 0.057 | inactive: -0.026 | inactive: 0.034 | inactive: -0.017 | inactive: 0.027 | inactive: 0.164 | inactive: -0.024 | inactive: 0.107 | inactive: -0.015 | inactive: -0.017 | inactive: 0.018 | inactive: 0.037 | inactive: 0.042 | inactive: -0.011 | inactive: -0.062 | inactive: -0.043 | inactive: -0.019 | inactive: -0.051 | inactive: -0.057 | inactive: 0.001
FBXO30 (UniProt Q8TB52) | inactive: -0.015 | inactive: -0.03 | inactive: -0.013 | inactive: 0.187 | inactive: 0.024 | inactive: -0.072 | inactive: -0.021 | inactive: 0.045 | inactive: 0.032 | inactive: -0.117 | inactive: 0.015 | inactive: -0.032 | inactive: 0.012 | inactive: 0.067 | inactive: 0.02 | inactive: 0.001 | inactive: 0.012 | inactive: -0.008 | inactive: -0.017 | inactive: 0.005
FASTKD5 (UniProt Q7L8L6) | inactive: -0.025 | inactive: 0.085 | inactive: -0.075 | inactive: 0.089 | inactive: -0.042 | inactive: -0.193 | inactive: 0.056 | inactive: 0.036 | inactive: 0.169 | inactive: -0.056 | inactive: -0.072 | inactive: 0.032 | inactive: -0.006 | inactive: 0.113 | inactive: -0.027 | inactive: -0.053 | inactive: 0.003 | inactive: 0.004 | inactive: 0.054 | inactive: 0.013
FOPNL (UniProt Q96NB1) | inactive: 0.107 | inactive: -0.077 | inactive: 0.027 | inactive: 0.023 | inactive: 0.083 | inactive: 0.013 | inactive: 0.055 | inactive: -0.073 | inactive: -0.07 | inactive: -0.084 | inactive: -0.008 | inactive: 0.002 | inactive: -0.091 | inactive: -0.046 | inactive: 0.404 | inactive: 0.031 | inactive: -0.034 | inactive: 0.005 | inactive: 0.084 | 
FKBP15 (UniProt Q5T1M5) | inactive: 0.008 | inactive: -0.028 | inactive: -0.002 | inactive: -0.014 | inactive: 0.005 | inactive: -0.024 | inactive: -0.009 | inactive: -0.004 | inactive: -0.052 | inactive: 0.024 | inactive: -0.01 | inactive: 0.001 | inactive: -0.039 | inactive: -0.021 | inactive: 0 | inactive: 0.003 | inactive: -0.067 | inactive: 0.007 | inactive: 0.015 | inactive: -0.033
FBXO46 (UniProt Q6PJ61) | inactive: -0.198 | inactive: 0.02 | inactive: -0.01 | inactive: -0.327 | inactive: -0.015 | inactive: 0.01 | inactive: -0.074 | inactive: 0.073 | inactive: -0.043 | inactive: -0.002 | inactive: 0.001 | inactive: -0.009 | inactive: 0 | inactive: -0.047 | inactive: 0.041 | inactive: -0.018 | inactive: 0.088 | inactive: -0.01 | inactive: 0.081 | 
FBXO22 (UniProt Q8NEZ5) | inactive: -0.035 | inactive: -0.027 | inactive: -0.035 | inactive: 0.035 | inactive: -0.012 | inactive: -0.03 | inactive: 0 | inactive: 0.034 | inactive: -0.049 | inactive: -0.039 | inactive: 0.005 | inactive: 0.021 | inactive: -0.028 | inactive: -0.036 | inactive: 0.025 | inactive: -0.047 | inactive: 0.034 | inactive: 0.012 | inactive: -0.007 | inactive: -0.016
FBXL20 (UniProt Q96IG2) | inactive: 0.001 | inactive: -0.037 | inactive: -0.028 | inactive: 0 | inactive: 0.021 | inactive: -0.04 | inactive: -0.005 | inactive: 0.024 | inactive: -0.082 | inactive: 0.015 | inactive: -0.007 | inactive: 0.009 | inactive: -0.015 | inactive: -0.116 | inactive: 0.023 | inactive: -0.051 | inactive: 0.023 | inactive: -0.04 | inactive: 0.017 | inactive: 0.005
FLOT1 (UniProt O75955) | inactive: -0.046 | inactive: -0.018 | inactive: -0.007 | inactive: 0.021 | inactive: 0.018 | inactive: -0.025 | inactive: -0.011 | inactive: 0.003 | inactive: 0.002 | inactive: 0.007 | inactive: 0.034 | inactive: -0.034 | inactive: 0.002 | inactive: -0.008 | inactive: -0.003 | inactive: 0.018 | inactive: -0.025 | inactive: 0.028 | inactive: -0.01 | inactive: 0.016
FAM98B (UniProt Q52LJ0) | inactive: 0.016 | inactive: 0.011 | inactive: -0.058 | inactive: 0.048 | inactive: -0.002 | inactive: -0.025 | inactive: 0.016 | inactive: 0.075 | inactive: 0.07 | inactive: 0.02 | inactive: 0.02 | inactive: -0.052 | inactive: 0.01 | inactive: 0.017 | inactive: -0.022 | inactive: -0.109 | inactive: -0.058 | inactive: -0.031 | inactive: 0.034 | inactive: -0.005
FKBP9 (UniProt O95302) | inactive: -0.058 | inactive: -0.002 | inactive: 0.004 | inactive: -0.005 | inactive: -0.025 | inactive: 0.03 | inactive: 0.051 | inactive: -0.014 | inactive: -0.011 | inactive: 0.01 | inactive: -0.008 | inactive: 0.012 | inactive: 0.075 | inactive: -0.008 | inactive: 0.017 | inactive: -0.024 | inactive: -0.057 | inactive: 0.041 | inactive: -0.023 | inactive: 0.002
FLOT2 (UniProt Q14254) | inactive: -0.022 | inactive: 0.012 | inactive: 0.013 | inactive: -0.018 | inactive: 0.007 | inactive: -0.009 | inactive: 0.004 | inactive: -0.003 | inactive: 0.01 | inactive: 0.01 | inactive: 0.04 | inactive: -0.054 | inactive: -0.001 | inactive: 0.032 | inactive: 0.009 | inactive: 0.02 | inactive: 0.003 | inactive: 0.014 | inactive: 0.025 | inactive: 0.007
FIGNL1 (UniProt Q6PIW4) | inactive: 0 | inactive: -0.03 | inactive: -0.078 | inactive: -0.035 | inactive: 0.002 | inactive: -0.071 | inactive: 0.003 | inactive: -0.018 | inactive: -0.024 | inactive: 0.007 | inactive: -0.011 | inactive: 0.037 | inactive: -0.101 | inactive: 0.054 | inactive: 0.068 | inactive: -0.08 | inactive: -0.044 | inactive: 0.035 | inactive: -0.02 | inactive: -0.035
FANCD2 isoform 1 (UniProt Q9BXW9) | inactive: -0.092 | inactive: -0.037 | inactive: -0.221 | inactive: -0.086 | inactive: -0.032 | inactive: 0.132 | inactive: -0.069 | inactive: -0.023 | inactive: -0.079 | active: 0.279 | inactive: 0.015 | inactive: -0.002 | inactive: -0.066 | inactive: 0.048 | inactive: 0 | active: -0.238 | inactive: -0.037 | inactive: 0.018 | inactive: 0.033 | inactive: -0.124
FBXO42 (UniProt Q6P3S6) | inactive: 0.031 | inactive: -0.088 | inactive: 0.014 | inactive: -0.097 | inactive: -0.087 | inactive: 0.069 | inactive: -0.004 | inactive: -0.021 | inactive: -0.009 | inactive: 0.072 | inactive: -0.039 | inactive: 0.072 | inactive: 0.017 | inactive: -0.046 | inactive: 0.048 | inactive: 0.047 | inactive: -0.005 | inactive: -0.028 | inactive: -0.039 | inactive: -0.009
FAM91A1 (UniProt Q658Y4) | inactive: -0.021 | inactive: 0.001 | inactive: -0.033 | inactive: 0.036 | inactive: 0.014 | inactive: -0.098 | inactive: 0.003 | inactive: 0.014 | inactive: -0.054 | inactive: -0.057 | inactive: 0.081 | inactive: 0.094 | inactive: -0.026 | inactive: 0.074 | inactive: 0.005 | inactive: -0.01 | inactive: -0.095 | inactive: -0.001 | inactive: 0.043 | inactive: -0.001

Record cards (already shown). Values in the order: log2 fold change [1] | log2 fold change [2] | log2 fold change [3] | log2 fold change [4] | log2 fold change [5] | log2 fold change [6] | log2 fold change [7] | log2 fold change [8] | log2 fold change [9] | log2 fold change [10] | log2 fold change [11] | log2 fold change [12] | log2 fold change [13] | log2 fold change [14] | log2 fold change [15] | log2 fold change [16] | log2 fold change [17] | log2 fold change [18] | log2 fold change [19] | log2 fold change [20]
FAM91A1 (UniProt Q658Y4) in the list: inactive: -0.021 | inactive: 0.001 | inactive: -0.033 | inactive: 0.036 | inactive: 0.014 | inactive: -0.098 | inactive: 0.003 | inactive: 0.014 | inactive: -0.054 | inactive: -0.057 | inactive: 0.081 | inactive: 0.094 | inactive: -0.026 | inactive: 0.074 | inactive: 0.005 | inactive: -0.01 | inactive: -0.095 | inactive: -0.001 | inactive: 0.043 | inactive: -0.001
FASTKD5 (UniProt Q7L8L6) in the list: inactive: -0.025 | inactive: 0.085 | inactive: -0.075 | inactive: 0.089 | inactive: -0.042 | inactive: -0.193 | inactive: 0.056 | inactive: 0.036 | inactive: 0.169 | inactive: -0.056 | inactive: -0.072 | inactive: 0.032 | inactive: -0.006 | inactive: 0.113 | inactive: -0.027 | inactive: -0.053 | inactive: 0.003 | inactive: 0.004 | inactive: 0.054 | inactive: 0.013
